# Results taken from publication PMC9897673.
# Amino acid sequences for entries named in this document (tags omitted).
# UniProt P17931: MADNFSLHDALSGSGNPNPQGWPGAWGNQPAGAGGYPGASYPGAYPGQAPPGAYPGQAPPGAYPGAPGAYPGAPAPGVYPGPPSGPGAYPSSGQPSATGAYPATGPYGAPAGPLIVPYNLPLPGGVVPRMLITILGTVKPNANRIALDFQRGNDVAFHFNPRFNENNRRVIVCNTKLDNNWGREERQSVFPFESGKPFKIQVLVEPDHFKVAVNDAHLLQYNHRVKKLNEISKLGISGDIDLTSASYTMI
# No constants are given. Whether binding was seen depends on the method and setting. In cells and extracts the contact can be indirect. Some binding calls cover weakened binding; strength is not graded here. For some of these results: Sequences can lack the tags named with a protein.
# What was measured:
# [1] = biological target: T1, GFP-PODXL WT (podocalyxin isoform A, extracellularly GFP-tagged) (human) (UniProt O00592); test: co-IP; association of GAL3 WT or R186S with PODXL (fig. S7, I and J); which partner was precipitated was not shown
# T1 sequence: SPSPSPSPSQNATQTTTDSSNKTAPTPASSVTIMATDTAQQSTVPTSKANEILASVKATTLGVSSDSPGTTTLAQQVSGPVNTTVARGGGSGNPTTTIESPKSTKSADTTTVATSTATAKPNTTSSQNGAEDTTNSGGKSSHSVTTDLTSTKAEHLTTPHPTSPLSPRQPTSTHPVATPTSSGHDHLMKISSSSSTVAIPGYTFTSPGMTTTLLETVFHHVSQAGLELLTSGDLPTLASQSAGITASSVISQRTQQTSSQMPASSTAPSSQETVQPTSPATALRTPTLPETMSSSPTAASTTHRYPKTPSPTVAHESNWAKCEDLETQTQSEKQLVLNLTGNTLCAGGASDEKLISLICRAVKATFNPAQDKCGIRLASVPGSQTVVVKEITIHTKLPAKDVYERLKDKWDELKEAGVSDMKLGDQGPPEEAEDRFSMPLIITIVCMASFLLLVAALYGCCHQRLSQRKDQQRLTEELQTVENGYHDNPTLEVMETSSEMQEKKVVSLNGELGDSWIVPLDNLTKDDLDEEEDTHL
# [2] = biological target: T1, GFP-PODXL WT (podocalyxin isoform A, extracellularly GFP-tagged) (human); test: co-IP; GFP-Trap immunoprecipitation of GFP-PODXL WT or mutants from PC3 lysates, Western blot for GAL3; lysis buffer 10 mM tris-Cl (pH 7.5), 150 mM NaCl, 0.5% NP-40
# [3] = biological target: T2, GFP-PODXLb (podocalyxin isoform B WT) (human) (UniProt O00592); test: as above
# T2 sequence: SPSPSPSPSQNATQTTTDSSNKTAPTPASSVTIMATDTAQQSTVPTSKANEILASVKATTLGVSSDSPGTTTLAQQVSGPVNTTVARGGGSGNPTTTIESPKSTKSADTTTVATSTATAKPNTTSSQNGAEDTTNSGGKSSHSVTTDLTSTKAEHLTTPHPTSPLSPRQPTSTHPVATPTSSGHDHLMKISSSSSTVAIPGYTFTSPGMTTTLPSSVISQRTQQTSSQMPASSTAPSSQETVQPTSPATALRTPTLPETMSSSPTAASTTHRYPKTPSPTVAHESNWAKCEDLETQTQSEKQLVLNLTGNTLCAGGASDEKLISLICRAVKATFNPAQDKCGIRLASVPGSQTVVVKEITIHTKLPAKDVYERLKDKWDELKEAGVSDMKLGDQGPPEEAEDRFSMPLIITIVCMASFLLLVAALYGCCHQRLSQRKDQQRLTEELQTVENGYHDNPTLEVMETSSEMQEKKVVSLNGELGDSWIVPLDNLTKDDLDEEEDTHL
# [4] = biological target: T3, podocalyxin (PODXL), endogenous (human (endogenous in PC3)) (UniProt O00592); test: co-IP; 1 mg PC3 lysate (Scramble or ITGB1 shRNA) immunoprecipitated with anti-PODXL antibody (3D3) O.N. at 4°C, anti-mouse IgG agarose; Western blot for GAL3; 10 mM tris-Cl (pH 7.5), 150 mM NaCl, 0.5% NP-40
# T3 sequence: T1 sequence
substance,measurement,setting,value
TagRFP-T-GAL3 WT (RNAi-resistant) (from UniProt P17931 1-250),binding,[1],binds
"galectin-3 (GAL3), endogenous (from UniProt P17931 1-250)",binding,[2],binds
same,binding,[3],binds
same,binding,[4],binds
